The list is a part of this screen's results and no random one: it is rich in T/C values a quarter to a half above the control, in often repeated tests (any T/C) and in doses without a T/C. Other doses and runs of a compound stand elsewhere. T/C: endpoint of the treated group in % of that of the vehicle group. Schedule codes are those of the source, taken here to give the interval after Q, in days (D) or hours (H), and the number of doses after X. Some T/C values are followed by the survivors on the day toxicity was checked, most often the fifth; where none is given, no animal had died by that day. Some values lie below zero, which means that the treated tumours became smaller. Some entries were tested several times; their values stand side by side, smallest first. Some entries give survivors of the animals treated and no T/C: the source holds a T/C of zero for them, seemingly a mark for toxic or unscored doses. Survivors were counted at the toxicity check, usually on the fifth day, unless a day is given; later deaths do not show.
Test system: nude mice, HT29 intrarenal xenograft, tumor weight T/C
Test: NCI In Vivo Anticancer Drug Screen. Data for tumor model HT29;CX-1 Human Adenocarcinoma (MER+) (intrarenal inoculation) in NU/NU Swiss (nude) mice
Details: T/C endpoint: mean tumor weight change, higher T/C = larger tumour
In short: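 Endpoint measured as tumor size or survival; ratio reported is treated group over vehicle controls.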

[1] = dose: 75.0 mg/kg/injection, schedule: Q04DX004 (sc), vehicle: Klucel (hydroxypropylcellulose) (HPC), evaluated on day 15
[2] = dose: 600.0 mg/kg/injection, schedule: Q04DX004 (sc), vehicle: saline with Tween-80

COc1cccc2c1C(=O)c1c(O)c3c(c(O)c1C2=O)C[C@@](O)(C(=O)CO)C[C@@H]3OC1CC(N)C(O)C(C)O1 (some centres undefined)
T/C (dose: 1.0 mg/kg/injection, schedule: Q01DX010 (sc), vehicle: water, evaluated on day 11): 40 % of control | T/C (dose: 1.0 mg/kg/injection, schedule: Q01DX010 (sc), vehicle: water, evaluated on day 20): 44, 87, 147 % of control | survivor count (dose: 2.0 mg/kg/injection, schedule: Q01DX010 (ip), vehicle: water): 1 of 2 on day 11 | T/C (dose: 2.0 mg/kg/injection, schedule: Q01DX010 (sc), vehicle: water, evaluated on day 11): 9 % of control [2 of 2 alive on day 11] | T/C (dose: 2.0 mg/kg/injection, schedule: Q01DX010 (sc), vehicle: water, evaluated on day 20): 23 [2 of 3 alive on day 20], 63, 83 [2 of 2 alive on day 20], 87, 105, 142, 240 % of control | survivor count (dose: 4.0 mg/kg/injection, schedule: Q01DX010 (ip), vehicle: water): 0 of 3 on day 11 and 1 of 3 on day 11 | T/C (dose: 4.0 mg/kg/injection, schedule: Q01DX010 (sc), vehicle: water, evaluated on day 11): 19 % of control [2 of 2 alive on day 11] | T/C (dose: 4.0 mg/kg/injection, schedule: Q01DX010 (sc), vehicle: water, evaluated on day 20): -10, 6 [2 of 3 alive on day 20], 28, 54, 98 [2 of 3 alive on day 20], 104, 128 % of control | T/C (dose: 5.0 mg/kg/injection, schedule: Q04DX004 (sc), vehicle: water, evaluated on day 15): -17, 17, 20 [2 of 3 alive on day 15], 35, 53, 56 [2 of 2 alive on day 15], 62, 80, 138 % of control | T/C (dose: 5.0 mg/kg/injection, schedule: Q04DX004 (sc), vehicle: water, evaluated on day 20): 39 % of control | survivor count (dose: 5.0 mg/kg/injection, schedule: Q04DX004 (sc), vehicle: water): 1 of 2 on day 15 | survivor count (dose: 8.0 mg/kg/injection, schedule: Q01DX010 (sc), vehicle: water): 0 of 2 on day 11 | T/C (dose: 10.0 mg/kg/injection, schedule: Q04DX004 (sc), vehicle: water, evaluated on day 15): -32, 1, 35, 41, 72, 73 [2 of 3 alive on day 15], 74 [2 of 3 alive on day 15], 91 % of control | survivor count (dose: 10.0 mg/kg/injection, schedule: Q04DX004 (sc), vehicle: water): 1 of 3 on day 15 and 1 of 2 on day 20 | survivor count (dose: 12.0 mg/kg/injection, schedule: Q01DX010 (sc), vehicle: saline): 0 of 3 on day 20 | survivor count (dose: 15.0 mg/kg/injection, schedule: Q04DX004 (sc), vehicle: saline): 1 of 3 on day 15 | survivor count (dose: 30.0 mg/kg/injection, schedule: Q04DX004 (sc), vehicle: saline): 0 of 3 on day 15 | survivor count (dose: 60.0 mg/kg/injection, schedule: Q04DX004 (sc), vehicle: saline): 0 of 3 on day 15

CC1=CC(=Nc2ccc(N(CCCl)CCCl)cc2)C=C(C)C1=O
survivor count (dose: 1200.0 mg/kg/injection, schedule: Q04DX004 (sc), vehicle: Klucel (hydroxypropylcellulose) (HPC)): 3 of 6 on day 15

Oc1c(Cl)cc(C(c2cc(Cl)c(O)c(Cl)c2)C(c2cc(Cl)c(O)c(Cl)c2)c2cc(Cl)c(O)c(Cl)c2)cc1Cl
T/C (dose: 225.0 mg/kg/injection, schedule: Q04DX004 (sc), vehicle: Klucel (hydroxypropylcellulose) (HPC), evaluated on day 15): 149 % of control

C[n+]1c2cc(N)ccc2cc2ccc(N)cc21
survivor count (dose: 12.5 mg/kg/injection, schedule: Q01DX010 (sc), vehicle: saline): 0 of 3 on day 11

COC1CC(C)C(OC)C2=CC(=O)C=C(NC(=O)/C(C)=C/C=C\C(C)C(OC(N)=O)/C(C)=C\C(C)C1OC)C2=O (centres undefined)
survivor count (dose: 100.0 mg/kg/injection, schedule: Q04DX004 (sc), vehicle: saline + alcohol): 0 of 6 on day 15

CNc1nc2c(N)ncnc2n1C1OC(CO)C(O)C1O (centres undefined)
survivor count (dose: 50.0 mg/kg/injection, schedule: Q04DX004 (sc), vehicle: saline): 3 of 5 on day 15 | survivor count (dose: 100.0 mg/kg/injection, schedule: Q04DX004 (sc), vehicle: saline): 2 of 6 on day 15 | survivor count (dose: 200.0 mg/kg/injection, schedule: Q04DX004 (sc), vehicle: saline): 0 of 6 on day 15

C/C=C(\C)c1cc(=O)c2c(C)cc3c(c2o1)C(=O)c1c(O)c(C2CC(C)(N(C)C)C(O)C(C)O2)cc(C2CC(N(C)C)C(O)C(C)O2)c1C3=O (centres undefined)
T/C (dose: 1.0 mg/kg/injection, schedule: Q04DX004 (sc), vehicle: saline, evaluated on day 15): 136 % of control | survivor count (dose: 32.0 mg/kg/injection, schedule: Q04DX004 (sc), vehicle: suspension in saline): 1 of 6 on day 15

N#C[Se-].c1ccc([Te+](c2ccccc2)c2ccccc2)cc1
survivor count (dose: 50.0 mg/kg/injection, schedule: Q04DX004 (sc), vehicle: Klucel (hydroxypropylcellulose) (HPC)): 0 of 6 on day 15 | survivor count (dose: 100.0 mg/kg/injection, schedule: Q04DX004 (sc), vehicle: Klucel (hydroxypropylcellulose) (HPC)): 0 of 6 on day 15

CC(C)CC(=O)NC(C(=O)NC(C(=O)NC(CC(C)C)C(O)CC(=O)NC(C)C(=O)NC(CC(C)C)C(O)CC(=O)O)C(C)C)C(C)C (centres undefined)
T/C [1]: 128 % of control

C[CH2][Ge]([CH2]C)[CH2]C.C[CH2][Ge]([CH2]C)[CH2]C.C[CH2][Ge]([CH2]C)[O][Ge]([CH2]C)[CH2]C
survivor count (dose: 300.0 mg/kg/injection, schedule: Q04DX004 (sc), vehicle: saline with Tween-80): 2 of 6 on day 15 | survivor count [2]: 0 of 6 on day 15 | survivor count (dose: 1200.0 mg/kg/injection, schedule: Q04DX004 (sc), vehicle: saline with Tween-80): 0 of 6 on day 15

CC(=O)OC1=NC(C)c2c1cc(OC(C)=O)[nH]c2=O (centres undefined)
T/C (dose: 450.0 mg/kg/injection, schedule: Q04DX004 (sc), vehicle: Klucel (hydroxypropylcellulose) (HPC), evaluated on day 15): 135 % of control | survivor count (dose: 1800.0 mg/kg/injection, schedule: Q04DX004 (sc), vehicle: Klucel (hydroxypropylcellulose) (HPC)): 1 of 6 on day 15

CN(C)CCN1C(=O)c2cccc3cc(N)cc(c23)C1=O
T/C (dose: 32.0 mg/kg/injection, schedule: Q04DX004 (sc), vehicle: saline with Tween-80, evaluated on day 15): 140 % of control | survivor count (dose: 128.0 mg/kg/injection, schedule: Q04DX004 (sc), vehicle: saline with Tween-80): 0 of 6 on day 15 | survivor count (dose: 256.0 mg/kg/injection, schedule: Q04DX004 (sc), vehicle: saline with Tween-80): 0 of 6 on day 15

Cn1cnc([N+](=O)[O-])c1Sc1ncn[nH]1
survivor count (dose: 400.0 mg/kg/injection, schedule: Q04DX004 (sc), vehicle: suspension in saline): 3 of 6 on day 15 | survivor count (dose: 800.0 mg/kg/injection, schedule: Q04DX004 (sc), vehicle: suspension in saline): 2 of 6 on day 15 | survivor count (dose: 1600.0 mg/kg/injection, schedule: Q04DX004 (sc), vehicle: suspension in saline): 0 of 5 on day 15

Cn1cnc([N+](=O)[O-])c1[Se]c1nc(N)nc2nc[nH]c12
survivor count (dose: 100.0 mg/kg/injection, schedule: Q01DX010 (sc), vehicle: water): 0 of 3 on day 11 | survivor count (dose: 200.0 mg/kg/injection, schedule: Q01DX010 (sc), vehicle: water): 0 of 3 on day 11 | survivor count (dose: 400.0 mg/kg/injection, schedule: Q01DX010 (sc), vehicle: water): 0 of 3 on day 11

Nc1ccccc1N
survivor count (dose: 400.0 mg/kg/injection, schedule: Q01DX010 (sc), vehicle: Klucel (hydroxypropylcellulose) (HPC)): 0 of 2 on day 11

O=NN(CCCl)C(=O)Oc1cc(Cl)c(Cl)cc1Cl
T/C [1]: 132 % of control

C[PH+](C)C.C[PH+](C)C.[Au]
survivor count (dose: 40.0 mg/kg/injection, schedule: Q04DX004 (sc), vehicle: saline): 0 of 6 on day 15

O=C1C=CN(C2OC(CO)C(O)C2O)C(=O)C1 (centres undefined)
T/C (dose: 50.0 mg/kg/injection, schedule: Q01DX010 (sc), vehicle: saline, evaluated on day 11): -1, 70, 94, 100, 116 [2 of 2 alive on day 11], 130 % of control | T/C (dose: 100.0 mg/kg/injection, schedule: Q01DX010 (sc), vehicle: saline, evaluated on day 11): 1, 22 [2 of 2 alive on day 11], 41 [2 of 2 alive on day 11], 43, 56 [2 of 2 alive on day 11], 96, 114 % of control [2 of 3 alive on day 11] | T/C (dose: 200.0 mg/kg/injection, schedule: Q01DX010 (sc), vehicle: saline, evaluated on day 11): -27 [2 of 3 alive on day 11], 11 [2 of 3 alive on day 11], 28 [5 of 6 alive on day 11], 90 [2 of 2 alive on day 11], 95 % of control | survivor count (dose: 200.0 mg/kg/injection, schedule: Q01DX010 (sc), vehicle: saline): 0 of 3 on day 11 | T/C (dose: 400.0 mg/kg/injection, schedule: Q01DX010 (sc), vehicle: saline, evaluated on day 11): 21 [2 of 3 alive on day 11], 49 [2 of 3 alive on day 11], 82 % of control | survivor count (dose: 400.0 mg/kg/injection, schedule: Q01DX010 (sc), vehicle: saline): 0 of 3 on day 11 and 1 of 3 on day 11

CC(=O)CC(C)=O.CC(=O)CC(C)=O.O=N[O-].O=N[O-].[Co]
survivor count [2]: 1 of 6 on day 15

— PubChem BioAssay AID206 (DTP/NCI, 2004)
